{"sequences": {"note": "Sequences of proteins named here, by UniProt entry; tags and fusion partners are left off.", "UniProt P51532": "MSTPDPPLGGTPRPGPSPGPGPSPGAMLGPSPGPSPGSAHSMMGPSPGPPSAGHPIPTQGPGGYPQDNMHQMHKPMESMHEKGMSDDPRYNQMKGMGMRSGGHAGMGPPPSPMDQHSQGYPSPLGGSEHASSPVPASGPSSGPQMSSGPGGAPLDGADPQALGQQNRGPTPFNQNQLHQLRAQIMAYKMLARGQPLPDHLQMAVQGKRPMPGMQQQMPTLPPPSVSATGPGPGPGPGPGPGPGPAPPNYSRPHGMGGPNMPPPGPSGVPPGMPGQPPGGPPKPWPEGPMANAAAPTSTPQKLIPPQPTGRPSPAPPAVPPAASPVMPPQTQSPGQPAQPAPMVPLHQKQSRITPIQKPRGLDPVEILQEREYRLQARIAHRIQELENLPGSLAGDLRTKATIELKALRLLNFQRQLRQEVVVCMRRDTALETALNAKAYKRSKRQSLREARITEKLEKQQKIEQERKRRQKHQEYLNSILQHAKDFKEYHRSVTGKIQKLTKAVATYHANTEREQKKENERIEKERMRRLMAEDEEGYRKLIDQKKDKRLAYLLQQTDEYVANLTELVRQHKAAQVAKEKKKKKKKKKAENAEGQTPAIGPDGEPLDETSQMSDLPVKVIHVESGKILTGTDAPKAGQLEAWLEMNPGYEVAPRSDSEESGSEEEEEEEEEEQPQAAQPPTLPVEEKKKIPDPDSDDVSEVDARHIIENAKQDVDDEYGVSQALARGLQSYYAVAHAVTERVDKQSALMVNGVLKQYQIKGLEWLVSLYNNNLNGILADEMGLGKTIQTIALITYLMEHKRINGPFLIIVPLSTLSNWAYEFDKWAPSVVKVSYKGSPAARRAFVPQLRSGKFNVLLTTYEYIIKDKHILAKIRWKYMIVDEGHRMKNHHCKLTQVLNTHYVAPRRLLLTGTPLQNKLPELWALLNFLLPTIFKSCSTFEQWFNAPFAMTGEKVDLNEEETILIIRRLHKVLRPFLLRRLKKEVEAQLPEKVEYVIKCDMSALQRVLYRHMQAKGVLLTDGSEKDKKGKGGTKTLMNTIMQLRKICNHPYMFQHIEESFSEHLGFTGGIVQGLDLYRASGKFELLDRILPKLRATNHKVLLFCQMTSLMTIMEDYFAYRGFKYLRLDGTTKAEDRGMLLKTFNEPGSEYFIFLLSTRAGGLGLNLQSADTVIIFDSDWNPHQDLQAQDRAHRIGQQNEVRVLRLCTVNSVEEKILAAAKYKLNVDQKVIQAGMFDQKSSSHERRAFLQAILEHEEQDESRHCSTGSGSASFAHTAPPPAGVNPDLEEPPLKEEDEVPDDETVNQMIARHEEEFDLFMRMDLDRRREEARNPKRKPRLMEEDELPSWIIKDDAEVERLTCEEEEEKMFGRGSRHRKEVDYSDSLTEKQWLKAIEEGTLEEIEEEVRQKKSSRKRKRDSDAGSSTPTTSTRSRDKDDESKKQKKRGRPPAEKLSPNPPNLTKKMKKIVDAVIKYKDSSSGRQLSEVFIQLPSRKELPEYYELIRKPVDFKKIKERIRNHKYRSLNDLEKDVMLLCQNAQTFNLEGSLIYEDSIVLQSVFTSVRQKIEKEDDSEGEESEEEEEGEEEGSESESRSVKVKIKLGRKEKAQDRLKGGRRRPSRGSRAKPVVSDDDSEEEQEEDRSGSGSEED", "UniProt Q12824": "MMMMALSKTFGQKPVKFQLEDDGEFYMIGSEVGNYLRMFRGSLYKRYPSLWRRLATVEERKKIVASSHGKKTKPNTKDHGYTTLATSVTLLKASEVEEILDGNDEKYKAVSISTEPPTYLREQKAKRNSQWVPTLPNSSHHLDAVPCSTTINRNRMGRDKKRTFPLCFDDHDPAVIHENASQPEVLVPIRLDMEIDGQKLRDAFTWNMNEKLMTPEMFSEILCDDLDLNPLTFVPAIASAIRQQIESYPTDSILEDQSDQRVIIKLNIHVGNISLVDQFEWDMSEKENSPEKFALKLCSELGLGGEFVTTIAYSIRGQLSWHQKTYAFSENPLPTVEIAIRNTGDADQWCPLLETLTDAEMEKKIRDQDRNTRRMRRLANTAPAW"}, "source": "paper PMC8626462", "molecular_target": "BRG1 (encoded by SMARCA4) (human (endogenous in HEK293T, RH4, RH30)) (UniProt P51532)", "assay": "SEC; 100 µg nuclear extract of RH4 or RH30 cells on BioSep SEC 300 (7.8 x 300 mm), 150 mM NaPO4 pH 7.2, 350 ul/minute; fractions western blotted for BRG1, BAF47 or PBRM1; fractions 15/16 are >1 megadalton", "note": "These are yes or no findings as the source states them, for the method shown. Some binding calls cover weakened binding; strength is not graded here.", "data": [{"substance": "BAF47 (encoded by SMARCB1) (from UniProt Q12824 1-385)", "values": [{"measurement": "binding", "result": "binds"}]}]}
